PubChem BioAssay AID1259425, University of Nebraska Medical Center | 2018
Aim: 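Seek colon cancer weak points whose silencing resembles KSR1 loss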 (primary screen). Cell system: HCT116 human colon cancer cells. Reagents: siRNA pool against human genes, 50 nM siRNA. Measurement: 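After 50 nM siRNA pool, branched-DNA assay measures six marker transcripts per well, minus blank, normalised to the geometric mean of two housekeeping transcripts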. Direction: BNIP3L mRNA: higher = more BNIP3L transcript after knockdown; NDRG1 mRNA: higher = more NDRG1 transcript after knockdown; BNIP3 mRNA: higher = more BNIP3 transcript after knockdown; ALDOC mRNA: higher = more ALDOC transcript after knockdown; ACSL5 mRNA: higher = more ACSL5 transcript after knockdown.
In all, the deposit lists about 14,000 reagents; shown is a random part of them. No sequences are given here. Not given: the time to read-out.

no.	gene	BNIP3L mRNA, set 1	NDRG1 mRNA, set 1	BNIP3 mRNA, set 1	ALDOC mRNA, set 1	ACSL5 mRNA, set 1
1	LSAMP	0.0552	0.186	0.312	0.0135	0.183
2	SLC45A4	0.106	0.107	0.174	0.0229	0.322
3	E2F1	0.168	0.293	0.449	0.0527	0.212
4	TAF5L	0.0903	0.247	0.254	0.0208	0.159
5	MAPK1	0.0559	0.113	0.279	0.00776	0.119
6	DNASE1L3	0.0514	0.205	0.289	0.011	0.354
7	STK32C	0.062	0.194	0.237	0.00504	0.3
8	OSGIN1	0.0894	0.501	0.26	0.0177	0.163
9	TDG	0.0325	0.185	0.333	0.0404	0.113
10	ADARB2	0.13	0.256	0.379	0.032	0.27
11	CHP2	0.108	0.123	0.253	0.0256	0.204
12	COL11A2	0.0887	0.104	0.433	0.02	0.123
13	FOXS1	0.136	0.239	0.285	0.0207	0.244
14	SEC63	0.0537	0.17	0.204	0.0169	0.165
15	CWC22	0.0731	0.0854	0.335	0.0541	0.0729
16	DDB1	0.19	0.599	0.293	0.0303	0.17

Sorted by “ALDOC mRNA, set 1” (high to low): some entries from above
gene	BNIP3L mRNA, set 1	NDRG1 mRNA, set 1	BNIP3 mRNA, set 1	ALDOC mRNA, set 1	ACSL5 mRNA, set 1
TDG	0.0325	0.185	0.333	0.0404	0.113
ADARB2	0.13	0.256	0.379	0.032	0.27
CHP2	0.108	0.123	0.253	0.0256	0.204
OSGIN1	0.0894	0.501	0.26	0.0177	0.163
STK32C	0.062	0.194	0.237	0.00504	0.3

The list goes on:
no.	gene	BNIP3L mRNA, set 1	NDRG1 mRNA, set 1	BNIP3 mRNA, set 1	ALDOC mRNA, set 1	ACSL5 mRNA, set 1
17	GALNT16	0.12	0.259	0.253	0.0456	0.302
18	NDUFS1	0.115	0.158	0.335	0.0308	0.225
19	PCF11	0.269	1.25	0.736	0.131	0.655
20	PES1	0.107	0.199	0.319	0.0434	0.198
21	MYOM2	0.0873	0.477	0.181	0.0179	0.393
22	SDC2	0.133	0.381	0.158	0.0113	0.138
23	DTNA	0.0467	0.0659	0.418	0.0129	0.226
24	CADPS	0.161	0.803	0.362	0.0262	0.233
25	MCOLN1	0.0861	0.432	0.36	0.0177	0.159
26	SMPD1	0.119	0.131	0.368	0.0307	0.276
27	GATA3	0.0411	0.311	0.144	0.0152	0.222
28	ANKS1B	0.176	0.324	0.401	0.0679	0.239
29	AMHR2	0.108	0.127	0.269	0.0153	0.256
30	COG4	0.0702	0.0849	0.252	0.0273	0.0837
31	RCC2	0.0543	0.149	0.25	0.0239	0.163
32	SULT1A1	0.14	0.456	0.458	0.0529	0.309
33	H2AC6	0.144	0.113	0.32	0.0198	0.0966
34	TMEM14C	0.108	0.236	0.396	0.0847	0.231
